# According to the supplement of paper PMC7238544:
# Counter-ions that a name gives are not always drawn. ± gives the standard deviation of the averaged measurements. The list shows a part of the results. The data scatter; read single values as rough.
# Legend:
# [1] = tested on: hAMSC donor 1; experiment: Hoechst total cell count ratio vs vehicle control; higher = more cells (less toxicity)
# [2] = tested on: hAMSC donor 2; experiment: as above
# [3] = tested on: hAMSC donor 1; experiment: transgenic luciferase activity (RLU/mg protein) fold change vs vehicle control (ratio); higher = more transgene expression
# [4] = tested on: hAMSC donor 2; experiment: as above
# [5] = tested on: hAMSC donor 1; experiment: transfection efficiency (EGFP+ cells / Hoechst count) fold change vs vehicle control (ratio); hAMSC are human adipose-derived mesenchymal stem cells given an EGFP-luciferase plasmid by lipofection; higher = enhanced transfection
# [6] = tested on: hAMSC donor 2; experiment: as above
# [7] = priming compound concentration 0.2 µM
# [8] = priming compound concentration 1.7 µM
# [9] = priming compound concentration 13 µM
Compound,"Hoechst total cell count ratio [1, 7]","Hoechst total cell count ratio [1, 8]","Hoechst total cell count ratio [1, 9]","Hoechst total cell count ratio [2, 7]","Hoechst total cell count ratio [2, 8]","Hoechst total cell count ratio [2, 9]","transgenic luciferase activity [3, 7]","transgenic luciferase activity [4, 8]","transfection efficiency [5, 7]","transfection efficiency [5, 8]","transfection efficiency [5, 9]","transfection efficiency [6, 7]","transfection efficiency [6, 8]","transfection efficiency [6, 9]","transgenic luciferase activity [3, 8]","transgenic luciferase activity [4, 9]","transgenic luciferase activity [4, 7]","transgenic luciferase activity [3, 9]"
CC#C[C@]1(O)CC[C@H]2[C@@H]3CCC4=CC(=O)CCC4=C3[C@@H](c3ccc(N(C)C)cc3)C[C@@]21C,0.853 ± 0.072,1.14 ± 0.15,1.03 ± 0.091,0.969 ± 0.074,1.55 ± 0.15,0.948 ± 0.36,0.901 ± 0.061,0.809 ± 0.039,1.41 ± 0.11,1.16 ± 0.41,1.36 ± 0.18,1.34 ± 0.19,1.35 ± 0.095,1.12 ± 0.079,,,,
CCc1c2c(nc3ccc(OC(=O)N4CCC(N5CCCCC5)CC4)cc13)-c1cc3c(c(=O)n1C2)COC(=O)[C@]3(O)CC [Irinotecan hydrochloride],1.1 ± 0.072,0.996 ± 0.14,0.862 ± 0.13,1.31 ± 0.34,0.916 ± 0.059,0.292 ± 0.004,,,1.33 ± 0.23,2.28 ± 0.26,,0.942 ± 0.23,1.66 ± 0.24,,0.923 ± 0.2,1.45 ± 0.15,,
CN1CCC[C@H]1c1cccnc1 [Nicotine],1.19 ± 0.084,1.3 ± 0.15,1.36 ± 0.098,1.03 ± 0.13,1.17 ± 0.21,1.18 ± 0.2,1.74 ± 0.32,,1.01 ± 0.36,0.708 ± 0.33,1.49 ± 0.066,1.23 ± 0.35,0.978 ± 0.035,1 ± 0.14,,,0.663 ± 0.17,
CC(=O)OCC(CCn1cnc2cnc(N)nc21)COC(C)=O [Famciclovir],1.12 ± 0.1,1.14 ± 0.22,1.11 ± 0.27,1.36 ± 0.29,1.05 ± 0.015,1.04 ± 0.37,,,0.806 ± 0.15,1.25 ± 0.35,1.18 ± 0.66,1.06 ± 0.091,1.12 ± 0.2,0.935 ± 0.093,,,,0.812 ± 0.1
CN(CCOc1ccc(CC2SC(=O)NC2=O)cc1)c1ccccn1 (stereo not drawn) [Rosiglitazone maleate],0.958 ± 0.15,0.97 ± 0.11,1.14 ± 0.061,1.48 ± 0.14,1.73 ± 0.061,1.03 ± 0.067,,,1.48 ± 0.12,1.89 ± 0.18,1.78 ± 0.16,1.02 ± 0.13,0.751 ± 0.017,1.17 ± 0.13,1.08 ± 0.037,1.41 ± 0.25,,
OCCN1CCN(CCCN2c3ccccc3Sc3ccc(C(F)(F)F)cc32)CC1 [Fluphenazine dihydrochloride],1.07 ± 0.025,1.19 ± 0.037,1.15 ± 0.078,1.07 ± 0.42,1.09 ± 0.12,1.49 ± 0.25,0.789 ± 0.17,0.946 ± 0.2,1.86 ± 0.12,0.815 ± 0.059,0.94 ± 0.43,1.34 ± 0.51,0.963 ± 0.17,0.687 ± 0.18,,,,
COc1ccccc1N1CCN(CC(O)COc2cccc3ccccc23)CC1 (stereo not drawn) [Naftopidil],1.06 ± 0.2,1.2 ± 0.16,1.2 ± 0.14,1.44 ± 0.54,1.27 ± 0.28,0.944 ± 0.36,0.571 ± 0.18,0.451 ± 0.24,0.877 ± 0.34,0.876 ± 0.32,1.08 ± 0.6,1.11 ± 0.28,1.33 ± 0.18,1.18 ± 0.29,,,,
CCOC(=O)[C@H](CCc1ccccc1)N[C@H]1CCc2ccccc2N(CC(=O)O)C1=O [Benazepril hydrochloride],1.42 ± 0.21,1.33 ± 0.14,1.48 ± 0.16,1.02 ± 0.3,0.813 ± 0.15,0.962 ± 0.26,,,0.901 ± 0.28,1.37 ± 0.7,0.685 ± 0.069,0.904 ± 0.096,1.76 ± 0.24,1.15 ± 0.14,,,,0.692 ± 0.14
